Test results reported in publication PMC9500918, “Extended N-Terminal Acetyltransferase Naa50 in Filamentous Fungi Adds to Naa50 Diversity” (International Journal of Molecular Sciences, 2022).
No constants are given. Whether binding was seen depends on the method and setting. For some assays here: Binding can be weak; no strength is given. For some assays here: Binding seen in cells or lysates may run through a third protein.

Sequences of proteins named here, by UniProt entry; tags and fusion partners are left off. A change or cut given only in a name is not applied to a line headed by its entry.
UniProt G0S1V5: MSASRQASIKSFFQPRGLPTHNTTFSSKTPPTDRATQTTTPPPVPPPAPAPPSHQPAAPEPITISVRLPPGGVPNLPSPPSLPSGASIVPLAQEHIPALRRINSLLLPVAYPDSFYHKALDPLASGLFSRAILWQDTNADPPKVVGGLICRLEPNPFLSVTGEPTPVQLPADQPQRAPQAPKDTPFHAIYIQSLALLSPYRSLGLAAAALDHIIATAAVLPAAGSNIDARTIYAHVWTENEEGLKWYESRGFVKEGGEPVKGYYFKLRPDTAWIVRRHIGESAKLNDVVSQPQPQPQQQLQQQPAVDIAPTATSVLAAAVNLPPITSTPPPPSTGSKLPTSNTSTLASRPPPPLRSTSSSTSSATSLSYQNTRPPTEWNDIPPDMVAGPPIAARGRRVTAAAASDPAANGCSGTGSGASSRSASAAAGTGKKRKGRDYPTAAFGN
UniProt G0S4M4: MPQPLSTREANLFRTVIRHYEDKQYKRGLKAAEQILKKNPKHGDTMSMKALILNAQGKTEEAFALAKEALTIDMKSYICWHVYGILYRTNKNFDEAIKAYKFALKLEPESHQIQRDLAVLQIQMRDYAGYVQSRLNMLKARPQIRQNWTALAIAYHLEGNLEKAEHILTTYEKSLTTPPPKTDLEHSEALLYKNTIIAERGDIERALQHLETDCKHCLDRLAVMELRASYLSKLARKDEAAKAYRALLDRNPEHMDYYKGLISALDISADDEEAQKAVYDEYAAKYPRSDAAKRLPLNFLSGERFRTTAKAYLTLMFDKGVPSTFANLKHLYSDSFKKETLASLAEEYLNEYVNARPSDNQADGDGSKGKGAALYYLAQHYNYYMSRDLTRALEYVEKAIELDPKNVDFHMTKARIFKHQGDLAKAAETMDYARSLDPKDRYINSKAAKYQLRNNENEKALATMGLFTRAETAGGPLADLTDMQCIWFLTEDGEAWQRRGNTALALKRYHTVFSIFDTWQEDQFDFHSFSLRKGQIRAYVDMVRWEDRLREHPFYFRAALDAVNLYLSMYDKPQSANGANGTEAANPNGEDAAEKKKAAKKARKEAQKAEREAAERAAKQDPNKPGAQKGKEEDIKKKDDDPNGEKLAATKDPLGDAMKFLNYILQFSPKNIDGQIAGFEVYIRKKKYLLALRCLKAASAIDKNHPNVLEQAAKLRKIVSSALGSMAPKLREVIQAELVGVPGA
UniProt G0SCS3: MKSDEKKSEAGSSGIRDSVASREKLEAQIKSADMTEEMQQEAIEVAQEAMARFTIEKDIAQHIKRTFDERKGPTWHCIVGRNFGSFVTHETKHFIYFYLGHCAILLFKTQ
UniProt G0SCY6: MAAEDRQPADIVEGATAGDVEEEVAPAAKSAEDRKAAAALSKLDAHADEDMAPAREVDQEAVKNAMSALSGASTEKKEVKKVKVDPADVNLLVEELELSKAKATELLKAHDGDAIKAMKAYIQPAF

Tests used:
[1] = target: CtNaa50_(1-289) (Chaetomium thermophilum) (UniProt G0S1V5); experiment: SEC; analytical SEC on Superdex 200 10/300 GL in buffer G500 (20 mM pH 7.5 HEPES, 500 mM NaCl), 10 min incubation of the proteins before the run; peak fractions on Coomassie-stained SDS-PAGE; both purified
[2] = target: full-length CtNaa15 with C-terminal Flag-TEV-protein A tag (Chaetomium thermophilum) (UniProt G0S4M4); experiment: pull-down; pull-out of protein A-tagged Naa15 or Naa50 from cleared C. thermophilum lysate on IgG Sepharose, 500 mM NaCl, elution by TEV cleavage; SDS-PAGE stained with Coomassie
[3] = target: protein A-TEV-Flag-tagged full-length CtNaa50 (Chaetomium thermophilum) (UniProt G0S1V5); experiment: as above
[4] = target: CtNaa50_(82-289) with C-terminal hexa-histidine tag (Chaetomium thermophilum); experiment: crystal structure; sitting drop at 18 °C, CtNaa50_(82-289) mixed 1:2 (molar) with CoA-Ac-MVNAL; 1.1 Å; both purified
[5] = target: CtNaa50_(1-289) (Chaetomium thermophilum) (UniProt G0S1V5); experiment: nanoDSF (thermal shift); 10 µM protein with or without 100 µM CoA-Ac-MVNAL in buffer G500, 15-95 °C at 1.5 °C/min, triplicates; both purified
[6] = target: CtNaa50_(82-289) with C-terminal hexa-histidine tag (Chaetomium thermophilum); experiment: as above
[7] = target: CtNaa50_(82-445) (Chaetomium thermophilum); experiment: as above
[8] = target: protein A-TEV-Flag-tagged full-length CtNaa50 (Chaetomium thermophilum) (UniProt G0S1V5); experiment: as above

CtDLC1-His6 (from UniProt G0SCS3)
binding [1]: binds

CtHypK (endogenous) (from UniProt G0SCY6)
binding [2]: binds
binding [3]: no binding

B1: bisubstrate analog CoA-Ac-MVNAL (peptide)
peptide: MVNAL
modifications: CoA-Ac- on the N-terminus (bisubstrate analog CoA-Ac-MVNAL)
binding [4]: binds
binding [5]: binds
binding [6]: binds
binding [7]: binds
binding [8]: binds
